Here are results for one substance from publication PMC6761256.

Results are given in words; binding and its absence hold for the method and conditions named. Binding seen in cells or lysates may run through a third protein. A result given as binding can be weak or reduced; the word gives no strength.

Test [1] concerns the target T1, mixed lineage kinase domain-like protein (rat (endogenous in brain tissue)) (UniProt D3ZKP6).
T1 sequence: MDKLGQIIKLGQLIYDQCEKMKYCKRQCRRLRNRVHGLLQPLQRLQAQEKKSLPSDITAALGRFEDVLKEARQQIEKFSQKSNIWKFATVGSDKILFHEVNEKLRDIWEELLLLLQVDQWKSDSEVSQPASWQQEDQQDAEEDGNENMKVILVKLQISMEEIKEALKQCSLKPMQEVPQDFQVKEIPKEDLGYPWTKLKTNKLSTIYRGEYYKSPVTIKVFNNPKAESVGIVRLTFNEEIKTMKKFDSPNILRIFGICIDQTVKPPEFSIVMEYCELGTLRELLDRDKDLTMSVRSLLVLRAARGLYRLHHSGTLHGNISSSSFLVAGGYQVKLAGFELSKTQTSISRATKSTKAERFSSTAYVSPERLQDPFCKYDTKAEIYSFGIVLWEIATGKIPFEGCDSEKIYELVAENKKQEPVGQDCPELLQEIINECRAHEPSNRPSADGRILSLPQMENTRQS
Description: co-IP; endogenous proteins in lysates of rat brain tissue 6 h after CCI (weak RIPA lysis buffer, pre-cleared with protein A/G agarose); 500 ul extract with 2 ug primary antibody (RIP3 or MLKL precipitated) overnight at 4°C, protein A/G agarose 4 h at 4°C, immunoblot; also in rats given AAV-shA20 or AAV-shCtrl, Nec-1 or melatonin.

In test [2] the target is T2, RIP3 (rat (endogenous in brain tissue)) (UniProt Q9Z2P5).
T2 sequence: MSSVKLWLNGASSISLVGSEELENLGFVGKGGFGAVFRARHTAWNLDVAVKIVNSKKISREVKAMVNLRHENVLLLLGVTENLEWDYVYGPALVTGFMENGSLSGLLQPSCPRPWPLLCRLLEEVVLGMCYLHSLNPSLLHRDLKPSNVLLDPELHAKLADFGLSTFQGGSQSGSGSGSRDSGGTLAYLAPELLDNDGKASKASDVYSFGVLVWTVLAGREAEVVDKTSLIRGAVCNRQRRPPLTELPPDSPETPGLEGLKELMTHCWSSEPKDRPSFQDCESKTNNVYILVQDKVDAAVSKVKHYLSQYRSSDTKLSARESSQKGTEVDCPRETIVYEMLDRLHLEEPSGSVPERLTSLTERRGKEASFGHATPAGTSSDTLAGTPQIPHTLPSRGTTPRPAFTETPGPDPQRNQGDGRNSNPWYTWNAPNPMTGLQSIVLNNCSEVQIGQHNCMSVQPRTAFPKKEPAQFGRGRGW
Described as above.

Turning to “receptor-interacting protein 1 (rat (endogenous in brain tissue))”, the binding result in test [1] and in test [2] was “binds” each time.
